The values below are quoted from earlier work in US4252956A, “Derivatives of 1,4-dihydropyridine-3-carbothiol acids” (priority 1979, dated 1981).

The structures appear in SMILES notation.

For this data set the following is noted: in vivo; cited from earlier work.

In the case of `COC(=O)C1=C(C)NC(C)=C(C(=O)OC)C1c1ccccc1[N+](=O)[O-]` [2,6-dimethyl-3,5-dicarbometh-oxy-4-o-nitrophenyl-1,4-dihydropyridine], the “toxicity (prior art)” value is recorded as “relatively toxic”.
